PubChem BioAssay AID1259425, University of Nebraska Medical Center – 2018
Here is one part, drawn at random, of about 14,000 reagents. Further read-outs or replicates are left out here. Not given: the time to read-out.

Aim: 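Compare each knockdown with KSR1 silencing using changes in marker transcripts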 (primary screen)
Cell system: HCT116 human colon cancer cells
Reagent: siRNA pool against human genes, 50 nM siRNA
Measured: 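After 50 nM siRNA pool, branched-DNA assay measures six marker transcripts per well, minus blank, normalised to the geometric mean of two housekeeping transcripts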
Scale: BNIP3L mRNA: higher = more BNIP3L transcript after knockdown; NDRG1 mRNA: higher = more NDRG1 transcript after knockdown

REPIN1 (GeneID 29803) — BNIP3L mRNA, set 1: 0.0775; NDRG1 mRNA, set 1: 0.167
USP6 (GeneID 9098) — BNIP3L mRNA, set 1: 0.0341; NDRG1 mRNA, set 1: 0.134
VPS26C (GeneID 10311) — BNIP3L mRNA, set 1: 0.0922; NDRG1 mRNA, set 1: 0.126
STARD7 (GeneID 56910) — BNIP3L mRNA, set 1: 0.239; NDRG1 mRNA, set 1: 0.183
RPN2 (GeneID 6185) — BNIP3L mRNA, set 1: 0.0639; NDRG1 mRNA, set 1: 0.347
DMAP1 (GeneID 55929) — BNIP3L mRNA, set 1: 0.0938; NDRG1 mRNA, set 1: 1.34
ANG (GeneID 283) — BNIP3L mRNA, set 1: 0.16; NDRG1 mRNA, set 1: 0.161
SPTBN1 (GeneID 6711) — BNIP3L mRNA, set 1: 0.246; NDRG1 mRNA, set 1: 1.02
TTC1 (GeneID 7265) — BNIP3L mRNA, set 1: 0.215; NDRG1 mRNA, set 1: 1.3
OLIG2 (GeneID 10215) — BNIP3L mRNA, set 1: 0.206; NDRG1 mRNA, set 1: 0.226
PTCH1 (GeneID 5727) — BNIP3L mRNA, set 1: 0.0399; NDRG1 mRNA, set 1: 0.0674
CDH6 (GeneID 1004) — BNIP3L mRNA, set 1: 0.107; NDRG1 mRNA, set 1: 0.0898
CASKIN1 (GeneID 57524) — BNIP3L mRNA, set 1: 0.115; NDRG1 mRNA, set 1: 0.121
NCR3 (GeneID 259197) — BNIP3L mRNA, set 1: 0.0611; NDRG1 mRNA, set 1: 0.173
ITPR3 (GeneID 3710) — BNIP3L mRNA, set 1: 0.13; NDRG1 mRNA, set 1: 0.122
TCAF1 (GeneID 9747) — BNIP3L mRNA, set 1: 0.101; NDRG1 mRNA, set 1: 0.216
KLK4 (GeneID 9622) — BNIP3L mRNA, set 1: 0.0666; NDRG1 mRNA, set 1: 0.274
CDCA8 (GeneID 55143) — BNIP3L mRNA, set 1: 0.1; NDRG1 mRNA, set 1: 0.355
ANAPC5 (GeneID 51433) — BNIP3L mRNA, set 1: 0.0648; NDRG1 mRNA, set 1: 0.147
NEMP1 (GeneID 23306) — BNIP3L mRNA, set 1: 0.121; NDRG1 mRNA, set 1: 0.4

Just “BNIP3L mRNA, set 1” (5 entries from above):
DMAP1 (GeneID 55929) = 0.0938
ANG (GeneID 283) = 0.16
SPTBN1 (GeneID 6711) = 0.246
TTC1 (GeneID 7265) = 0.215
OLIG2 (GeneID 10215) = 0.206

Continued:
DNAAF2 (GeneID 55172) — BNIP3L mRNA, set 1: 0.486; NDRG1 mRNA, set 1: 0.55
MYOZ2 (GeneID 51778) — BNIP3L mRNA, set 1: 0.0469; NDRG1 mRNA, set 1: 0.435
CLDN5 (GeneID 7122) — BNIP3L mRNA, set 1: 0.104; NDRG1 mRNA, set 1: 0.349
SEPTIN1 (GeneID 1731) — BNIP3L mRNA, set 1: 0.106; NDRG1 mRNA, set 1: 0.0914
NCOA1 (GeneID 8648) — BNIP3L mRNA, set 1: 0.0791; NDRG1 mRNA, set 1: 0.211
BLCAP (GeneID 10904) — BNIP3L mRNA, set 1: 0.108; NDRG1 mRNA, set 1: 0.102
NKAPD1 (GeneID 55216) — BNIP3L mRNA, set 1: 0.0755; NDRG1 mRNA, set 1: 0.264
RAD51B (GeneID 5890) — BNIP3L mRNA, set 1: 0.0606; NDRG1 mRNA, set 1: 0.117
COX11 (GeneID 1353) — BNIP3L mRNA, set 1: 0.082; NDRG1 mRNA, set 1: 0.17
MAB21L1 (GeneID 4081) — BNIP3L mRNA, set 1: 0.0608; NDRG1 mRNA, set 1: 0.132
AKR7L (GeneID 246181) — BNIP3L mRNA, set 1: 0.132; NDRG1 mRNA, set 1: 0.55
MIA (GeneID 8190) — BNIP3L mRNA, set 1: 0.0503; NDRG1 mRNA, set 1: 0.099
C19orf53 (GeneID 28974) — BNIP3L mRNA, set 1: 0.0904; NDRG1 mRNA, set 1: 0.138
EIF4EBP1 (GeneID 1978) — BNIP3L mRNA, set 1: 0.0824; NDRG1 mRNA, set 1: 0.0933
ZBTB44 (GeneID 29068) — BNIP3L mRNA, set 1: 0.0451; NDRG1 mRNA, set 1: 0.201
SNAP29 (GeneID 9342) — BNIP3L mRNA, set 1: 0.162; NDRG1 mRNA, set 1: 0.303
